Experimental data as given in patent publication US20180105585A1.
Results are given in words; binding and its absence hold for the method and conditions named. Some results given as binding are weak or reduced against the parent protein; the word gives no strength.

Protein sequences, listed by entry. Tags and fused reporters are not part of them. Residues count along the entry.
UniProt P05067, residues 672-713: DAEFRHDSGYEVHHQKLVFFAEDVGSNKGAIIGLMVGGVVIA

Columns and labels:
[1] = target: Amyloid beta plaques in Tg2576 mouse brain sections (human (transgene in mouse)) (UniProt P05067); test: in vitro immunohistochemistry, diffuse plaques and CAA plaques
[2] = target: Amyloid beta plaques in human Alzheimer's Disease brain sections (human) (UniProt P05067); test: as above
[3] = target: Amyloid beta plaques in Tg2576 mouse brain sections (human (transgene in mouse)) (UniProt P05067); test: immunohistochemistry, sections stained in vitro with the antibody in excess

Measured: binding

B1: Abet0380-GL IgG1-TM (antibody, V domains shown)
VH: EVQLLESGGGLVQPGGSLRLSCAASMGNFNYQTMWWVRQAPGKGLEWVSVIGKTNENIAYADSVKGRFTISRDNSKNTLYLQMNSLRAEDTAVYYCAREWMDHSRPYYYYGMDVWGQGTLVTVSS
VL: SYELTQPPSVSVSPGQTASITCSGHNLEDKFASWYQQKPGQSPVLVIYRDDKRPSGIPERFSASNSGHTATLTISGTQAMDEADYYCSSQDTVTRVFGGGTKLTVL
binds: all assays above
